Measurements reported in US12429423B2, “L-2-hydroxyglutarate biosensor based on specific transcriptional regulator and application thereof” (SHANDONG UNIVERSITY, priority 2020, dated 2025).
At least one compound was matched to its structure with a doubt left.

System: LhgR, L-2-HG-responsive transcriptional regulator (GntR family repressor) from Pseudomonas putida W619, wild type, nucleotide SEQ ID NO. 1
Assay: EMSA effector analysis: effect of compounds on binding of LhgR to lhgO promoter fragment F1
Assay type: biochemical
Conditions: 50 mM compound, 60 nM LhgR, 10 nM F1 fragment, pH 7.4, 30° C.

## O=C(O)CC[C@H](O)C(=O)O [L-2-HG, L-2-Hydroxyglutarate]
  effect on binding of LhgR to the lhgO promoter (EMSA): specifically inhibits the binding of LhgR to the lhgO promoter
